PubChem BioAssay AID1458 (National Center for Advancing Translational Sciences (NCATS), 2008)
Hit rate of the full screen: of about 210,000 compounds, about 5,900 (2.8%) were called active. Not shown: some 5% with an inconclusive outcome. Calls follow the shape of the dose curve; as a rule, active = well fitted activation curve with a large enough effect; inconclusive = small, poorly fitted or top-dose-only effect; inactive = no such curve, though single readings can be large or run the other way. Only a part is listed here, and it is no random draw. The source gives no active or inactive call for entries shown without one.

assay: qHTS Assay for Enhancers of SMN2 Splice Variant Expression; conditions: HEK293 SMN2-luciferase splicing reporter, luminescence, 30-36 h; activity change, positive = activation: at 46.1 µM (top of the series) unless noted; also: nearly all actives have a fitted effect of over 55% in size; as to activity change, positive = activation: % of control where 0% means no effect
Method in brief: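 HEK293 cells carry an SMN2 minigene-luciferase reporter in which exon 7 inclusion puts luciferase in frame. Cells were seeded at 2000 cells/well, attached for 10-12 hours, then exposed to compounds for 30-36 hours at 37C before ONE-Glo luminescence.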
Potency is read from the fitted curve at half-maximal effect.

Row | SMILES | Potency | activity change, positive = activation
1 | CCOC(=O)c1ccc2nc(NC(=O)c3cccs3)sc2c1 | active: 3.98 µM | 
2 | CC(CN1CCCCC1)OC(=O)C1c2ccccc2Oc2ccccc21 (stereo not given) |  | 70.7%
3 | COc1ccc(NC(=O)C2CCCO2)cc1Cl (stereo not given) |  | 51.7%
4 | CN(C)S(=O)(=O)c1ccc2oc(SCC(=O)Nc3ccccc3F)nc2c1 | active: 11.2 µM | 
5 | Cc1nnc(Sc2nc3ccccc3o2)c2ccccc12 |  | 44.4%
6 | COC(=O)Nc1ccc2c(c1)N(C(=O)CCN1CCOCC1)c1ccccc1S2 |  | 38.8%
7 | NS(=O)(=O)c1cccnc1Nc1c(Cl)cccc1Cl |  | 32.5%
8 | CC1CC2=C(C(=O)O1)C(c1ccccc1)Nc1ccccc1N2 (stereo not given) |  | 31%
9 | O=C(/C=C/c1ccc([N+](=O)[O-])cc1)Nc1ncc([N+](=O)[O-])s1 | active: 0.501 µM | 
10 | CN(C)S(=O)(=O)N1CCN(S(=O)(=O)c2ccc(F)cc2)CC1 |  | 48.5%
11 | Cc1cc(C(=O)N/N=C2\CC(=O)CC(C)(C)C2)c(C)n1-c1ccccc1 |  | inactive: -48.5%
12 | O=S1(=O)C=C(Oc2ccc3ccccc3c2)c2ccccc21 |  | -38.6%
13 | Cc1ccccc1-c1nnn(CC(=O)Nc2ccc3c(c2)OCCO3)n1 |  | 6.49%
14 | Cc1ccc(NC2=C/C(=N/S(=O)(=O)c3cccs3)c3ccccc3C2=O)cc1 |  | -108%
15 | Cc1cccc(NC(=O)c2onc3c2CCCC3)n1 |  | -9.1%
16 | O=C(Nc1nc(-c2cccs2)cs1)C1=COCCO1 | active: 12.6 µM | 
17 | Cc1cc(=O)n2cc(-c3ccccc3)nc2[nH]1 |  | 59.2%
18 | CCCn1c(CNc2ccc(Br)cc2)nc2ccccc21 |  | inactive: -39.2%
19 | Cc1nc2ccccc2n1CC(=O)NC(C)C1CC2CCC1C2 (stereo not given) |  | inactive: -48.4%
20 | CCOc1ccc(S(=O)(=O)NCc2ccco2)c2ccccc12 |  | 33.9%
21 | CCCCc1ccc(NC(=O)CC(C)(C)C)cc1 |  | 151%
22 | COc1ccc(CC2S/C(=C(\C#N)C(=O)NCc3ccco3)N(c3ccc(C)cc3)C2=O)cc1 (stereo not given) |  | 35.2%

Row | SMILES | Potency | activity change, positive = activation
23 | c1ccc2c(CCNc3ncnc4nc[nH]c34)cccc2c1 |  | inactive: -61.7%
24 | O=C(O)CCCCCNC(=O)Nc1ccc2c(c1)OCCO2 |  | 31.5%
25 | Cc1cccc(/C(N)=N/OC(=O)c2ccco2)c1 | active: 15.8 µM | 
26 | COc1ccc(C(=O)Nc2ccccc2C(=O)N/N=C/c2ccco2)cc1 |  | 58%
27 | CCc1cc2c(cc3c(=O)n(CC(=O)N4CCCCC4)ncn32)s1 |  | -36.9%
28 | CCOC(=O)C1=C(CNC2CCCCC2)NC(=O)NC1c1cc(C)ccc1C (stereo not given) |  | 28.4%
29 | O=c1cc(O)c2sc(Nc3cccc(C(F)(F)F)c3)nc2[nH]1 |  | -0.371%
30 | CCOC(=O)/C=C1\SCC(=O)N1CC(=O)NCCc1ccc(F)cc1 |  | -11.8%
31 | CC(C)CNS(=O)(=O)c1ccc(OCC(=O)Nc2ccc3c(c2)OCCO3)cc1 |  | 31%
32 | c1ccc2sc(-c3ccc4c(c3)OCO4)nc2c1 | active: 7.08 µM | 
33 | CCOC(=O)c1sc(N/N=C/c2ccccc2)nc1C | active: 12.6 µM | 
34 | CCc1ccc(C(=O)Nc2ccc(S(=O)(=O)Nc3nc(C)cc(C)n3)cc2)o1 |  | 86.1%
35 | COC(=O)c1ccccc1NC(=O)CN(C)S(=O)(=O)c1ccc(OC)cc1 |  | 2.1%
36 | Cc1ccc(-n2[nH]c(C)c(/C=N/NC(=O)c3cccc([N+](=O)[O-])c3)c2=O)cc1C |  | -90.9%
37 | N#Cc1cn(-c2ccccc2)nc1-c1cc2ccccc2oc1=O |  | 50.6%
38 | CC(=O)N/N=C(\C)c1ccc(Br)cc1Br |  | 81.1%
39 | Cc1cnc(NC(=O)c2cccc(S(=O)(=O)N3CC(C)OC(C)C3)c2)s1 (stereo not given) |  | -69.9%
40 | CC(C)c1ccc(NC(=O)CSc2ncccc2C(=O)Oc2cccc([N+](=O)[O-])c2)cc1 | active: 10 µM | 
41 | Cc1cccc(Nc2nnc(-c3ccc(N4CCOCC4)c([N+](=O)[O-])c3)c3ccccc23)c1 |  | inactive: -67.2%
42 | CC(=O)c1ccc(NC(=O)c2cnn3ccccc23)cc1 |  | inactive: -36.7%
43 | [O-]/[N+](=C\c1ccncc1)c1ccc(Br)cc1 |  | 148%
44 | Cc1ccc(/C=N/NC(=O)CSc2nc3ccccc3o2)cc1 |  | 124%

Row | SMILES | Potency | activity change, positive = activation
45 | Cc1cc(C)n(-c2ccc3cccc(NS(C)(=O)=O)c3n2)n1 |  | -85.6%
46 | Cn1c(SCC(=O)N(C2CCCCC2)C2CCCCC2)nnc1-c1cccs1 |  | 40.4%
47 | CCOC(=O)c1ccccc1NC(=O)CC1SC(=NC)N(C)C1=O (stereo not given) |  | 22.6%
48 | Cc1ccc(S(=O)(=O)N2CCN(C(=O)CN3CCOCC3)C2)cc1 |  | 20.9%
49 | CN1C(=O)CC(Sc2ncccc2C(=O)O)C1=O (stereo not given) |  | 9.59%
50 | Nc1ccc(Sc2nnnn2-c2ccccc2)c(Cl)c1 |  | 32.3%
51 | c1ccc(CNc2ncnc3c2cnn3Cc2ccccc2)cc1 | active: 11.2 µM | 
52 | COc1ccc(NC(=O)COC(C)=O)cc1OC |  | inactive: 24%
53 | CCCC(=O)Nc1ccc(Cl)c(NC(=O)c2ccco2)c1 |  | 51.1%
54 | Cc1ccc(/C=N/Nc2nnc(Cl)c3ccccc23)cc1 | active: 4.47 µM | 
55 | Cc1cc(C(=O)COC(=O)c2ccccc2O)c(C)n1Cc1cccs1 |  | -80.5%
56 | Cc1cc(-c2ccc(Cl)cc2)n2nc(N)nc2n1 |  | 31.2%
57 | O=C1C=C(NCCO)C(=O)c2cnccc21 |  | inactive: -115%
58 | Cc1ccc(Cn2c(/C=C/c3ccco3)nc3ccccc32)cc1 |  | 133%
59 | COc1ccc2cc3c(N)nn(C(=O)c4cccc([N+](=O)[O-])c4)c3nc2c1 |  | inactive: -34.9%
60 | O=c1cc(/C=C/c2ccccc2)oc2ccccc12 | active: 11.2 µM | 
61 | CN(C)CCN(Cc1ccco1)C(=O)c1cc2c(Cl)nc3ccccc3c2s1 |  | -55.3%
62 | COc1ccc(NS(=O)(=O)c2cc(NC(=O)CNC(=O)c3cccc(OC)c3)ccc2C)cc1 |  | inactive: 20.6%
63 | O=C(OCC(=O)N1CCCC1)c1ccccc1OCc1ccccc1 | active: 12.6 µM | 
64 | COc1cccc2[nH]c(-c3ccccn3)nc12 | active: 3.98 µM | 
65 | O=C(Nc1nc2ccc(F)cc2s1)c1ccccn1 |  | inactive: -54.1%
66 | O=c1c(C=NCCCn2ccnc2)c(-c2ccccc2)[nH]n1-c1nc2ccccc2s1 |  | 32%

Row | SMILES | Potency | activity change, positive = activation
67 | Cc1ccccc1C(=O)Nc1ccc(N2CCCCCC2)cc1 | active: 12.6 µM | 
68 | Cc1cc(C(C)(C)C)cc(S(=O)(=O)Nc2ccc(O)c(C(=O)O)c2)c1C |  | 34.1%
69 | O=C(O)c1cccnc1Br |  | -49.6%
70 | CCN(CC)C(=O)c1oc2ccc(S(=O)(=O)N3CCCCCC3)cc2c1C |  | -61.5%
71 | Cc1ccc(-n2c(CCC(=O)O)ccc2-c2cccs2)cc1Cl |  | 61.8%
72 | Clc1ncccc1-c1nc2ccccc2s1 |  | 103%
73 | COc1c2c(cc3occ(-c4ccc5c(c4)OCO5)c(=O)c13)OC(C)(C)C=C2 | active: 6.31 µM | 
74 | O=C(Cn1nc(C(F)F)cc1C(F)F)NNC(=S)Nc1ccc(Cl)cc1 |  | -31.4%
75 | CCOC(=O)C1CCCCN1Cc1cccc(OC)c1OC (stereo not given) |  | 27%
76 | COc1ccc(NC(=O)c2cc(C)on2)cc1 | active: 11.2 µM | 
77 | COc1cc(C)c(S(=O)(=O)N2CCOCC2)cc1C(C)C |  | 11.7%
78 | Cc1ccc(NC(=O)/C(C#N)=C(\N)C(Cl)(Cl)Cl)nc1 |  | 273%
79 | CSc1nc2nc3c(cn2n1)C(=O)CC(c1ccccc1)C3 (stereo not given) |  | 35.9%
80 | O=C(O)CNC(=O)c1nc(-c2ccccc2)n(-c2ccccc2)n1 |  | 52.8%
81 | CN1c2ccccc2C(O)=C(C(=O)Nc2ccccc2)S1(=O)=O |  | 33%
82 | O=C1Nc2ccccc2N(O)N1c1cc(-c2cccc(Cl)c2)no1 |  | 40.2%
83 | CCN(CC)C(=O)c1ccc2c3c(cccc13)C(=O)N(CCc1ccc(OC)c(OC)c1)C2=O |  | -57.9%
84 | N/C(=N\OC(=O)/C=C/c1ccc(Br)cc1)c1ccccn1 | active: 17.8 µM | 
85 | N#C/C(=C\c1cn[nH]c1-c1ccc(Cl)cc1)C(=O)NCc1ccccc1 |  | 41%
86 | COc1cc(C)cc(OC)c1/C=C\C(=O)O |  | inactive: -49.9% [at 9.22 µM]
87 | COc1ccccc1N1CCN(C(=O)CN(Cc2ccccc2)S(C)(=O)=O)CC1 |  | -35.7%
88 | CCOc1ccc(C2C(C(=O)c3ccco3)=C(O)C(=O)N2Cc2cccnc2)cc1OC (stereo not given) |  | 41.4%

Row | SMILES | Potency | activity change, positive = activation
89 | CN(c1ccccc1)S(=O)(=O)c1ccc(Cl)c(C(=O)Nc2ccc(-c3nc4ccccc4[nH]3)cc2)c1 |  | inactive: -42.6%
90 | CC(C)c1ccc(C(=O)NCc2ccc(Cl)cc2)cc1 | active: 15.8 µM | 
91 | COCCSc1nnc(NC(=O)C(C)(C)C)s1 |  | 30.9%
92 | CCOC(=O)Cn1nc(C)c2ccccc2c1=O |  | 32.2%
93 | CCOC(=O)c1c(C=O)c(C)n(Cc2ccccc2Cl)c1C |  | 24.2%
94 | O=C(Nc1nnc(C2=COCCO2)o1)c1ccc(S(=O)(=O)N2CCCC2)cc1 |  | -32.7%
95 | CC(C)c1cc(C(=O)N/N=C/c2ccco2)n[nH]1 | active: 15.8 µM | 
96 | O=C(CSCc1ccc(Cl)cc1)N1CCN(Cc2ccc3c(c2)OCO3)CC1 |  | inactive: -32.9%
97 | CCCCSc1nnc2c(n1)[nH]c1ccccc12 | active: 3.55 µM | 
98 | CCc1ccc2[nH]c(=O)c(CN(Cc3ccc(F)cc3)C(c3nnnn3CCN3CCOCC3)C(C)C)cc2c1 (stereo not given) |  | 57.5%
99 | N#Cc1c(N)nc2c(c1N)CC(COc1ccccc1)O2 (stereo not given) |  | 34.2%
100 | Cc1cccc(NC(=O)c2n[nH]c([N+](=O)[O-])c2Br)c1C | active: 10 µM | 
101 | Cc1ccc(NC(=O)CSc2nc3nc(C)cc(C)c3c(=O)[nH]2)cc1 |  | 50.5%
102 | Cc1cccc(NS(=O)(=O)c2cc(C(=O)NCCC3=CCCCC3)ccc2Cl)c1 |  | inactive: -34%
103 | Cc1cccc(N(CC(=O)NCc2ccco2)C(=O)CCC(=O)Nc2ccccn2)c1 |  | 38.3%
104 | Cc1ccc(C2CC(c3cccc(Br)c3)Nc3nnnn32)cc1 (stereo not given) |  | 32.8%
105 | CC(=O)Nc1ccc2oc(C)nc2c1 |  | 33.4%
106 | Cc1ccc2c(COC(=O)c3n[nH]c4ccccc34)cc(=O)oc2c1 |  | 63.5%
107 | COc1ccc(/C=N/N2CCN(C3c4ccccc4-c4ccccc43)CC2)cc1OC |  | 27.4%
108 | CCOc1ccccc1C(=O)Nc1nnc(COC)s1 |  | 17.3%
109 | COC(=O)c1ccc(NC(=O)NC2CCCCC2)cc1 | active: 12.6 µM | 
110 | COc1ccc(S(=O)(=O)CCC(=O)N2CCN(c3ccc(F)cc3)CC2)cc1 |  | -53.6%
